# Reference: paper PMC6562864
# Protein sequences, listed by entry. Tags and fused reporters are not part of them.
# UniProt P35222: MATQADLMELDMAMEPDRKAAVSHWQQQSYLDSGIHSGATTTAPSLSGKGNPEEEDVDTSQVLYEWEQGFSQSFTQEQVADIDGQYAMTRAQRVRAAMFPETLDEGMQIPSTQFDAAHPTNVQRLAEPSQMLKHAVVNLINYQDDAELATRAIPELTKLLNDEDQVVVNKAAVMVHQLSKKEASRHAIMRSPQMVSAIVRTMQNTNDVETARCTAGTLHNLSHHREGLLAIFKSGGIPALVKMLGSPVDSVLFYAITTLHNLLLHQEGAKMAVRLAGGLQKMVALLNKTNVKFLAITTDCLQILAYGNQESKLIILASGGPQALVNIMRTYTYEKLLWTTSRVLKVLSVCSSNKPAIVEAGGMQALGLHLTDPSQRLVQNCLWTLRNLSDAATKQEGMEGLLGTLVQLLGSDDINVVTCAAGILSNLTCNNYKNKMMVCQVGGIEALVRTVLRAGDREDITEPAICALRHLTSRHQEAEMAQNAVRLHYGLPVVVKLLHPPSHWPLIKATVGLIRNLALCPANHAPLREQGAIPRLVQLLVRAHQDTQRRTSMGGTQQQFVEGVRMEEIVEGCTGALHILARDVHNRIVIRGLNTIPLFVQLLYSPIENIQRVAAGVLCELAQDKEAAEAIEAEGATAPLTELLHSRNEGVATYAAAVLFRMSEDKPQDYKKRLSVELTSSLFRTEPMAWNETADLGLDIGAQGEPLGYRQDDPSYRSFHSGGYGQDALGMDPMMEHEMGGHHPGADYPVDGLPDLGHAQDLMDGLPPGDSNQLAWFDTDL
# UniProt Q9NQB0: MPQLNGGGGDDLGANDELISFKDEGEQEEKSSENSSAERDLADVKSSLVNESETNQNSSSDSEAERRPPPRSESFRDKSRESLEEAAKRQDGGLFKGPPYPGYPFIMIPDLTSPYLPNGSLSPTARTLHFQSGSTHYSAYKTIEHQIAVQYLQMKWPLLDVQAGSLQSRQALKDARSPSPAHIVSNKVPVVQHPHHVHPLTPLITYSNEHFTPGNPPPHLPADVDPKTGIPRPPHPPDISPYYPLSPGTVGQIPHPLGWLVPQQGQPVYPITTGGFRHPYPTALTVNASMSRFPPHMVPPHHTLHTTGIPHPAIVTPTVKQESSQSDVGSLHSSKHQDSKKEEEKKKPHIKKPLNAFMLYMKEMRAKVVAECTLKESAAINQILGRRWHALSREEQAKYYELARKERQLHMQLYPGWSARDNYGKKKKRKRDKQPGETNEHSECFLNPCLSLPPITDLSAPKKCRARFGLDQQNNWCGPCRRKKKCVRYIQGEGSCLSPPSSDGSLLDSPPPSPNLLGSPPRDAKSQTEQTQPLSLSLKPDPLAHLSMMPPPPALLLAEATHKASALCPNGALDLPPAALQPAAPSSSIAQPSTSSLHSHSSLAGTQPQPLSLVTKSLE
# These are yes or no findings as the source states them, for the method shown. In cells and extracts the contact can be indirect. Some binding calls cover weakened binding; strength is not graded here.
# T1: ErbB3 binding protein 1 (EBP1) p42 isoform (human (endogenous in HepG2, Huh6 and Hep3B)) (UniProt Q9UQ80)
# T1 sequence: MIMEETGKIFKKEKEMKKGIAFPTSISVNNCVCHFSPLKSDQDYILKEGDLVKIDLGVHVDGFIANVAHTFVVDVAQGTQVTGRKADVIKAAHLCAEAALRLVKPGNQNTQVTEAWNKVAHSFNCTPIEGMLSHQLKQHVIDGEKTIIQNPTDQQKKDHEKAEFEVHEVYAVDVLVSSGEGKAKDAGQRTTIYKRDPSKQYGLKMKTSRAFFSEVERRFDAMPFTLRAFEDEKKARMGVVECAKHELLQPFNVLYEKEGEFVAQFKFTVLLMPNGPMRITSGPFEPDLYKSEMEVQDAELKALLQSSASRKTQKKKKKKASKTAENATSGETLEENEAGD
# B1: ErbB3 binding protein 1 (EBP1) p48 isoform (protein, UniProt Q9UQ80 1-394)
# chain: MSGEDEQQEQTIAEDLVVTKYKMGGDIANRVLRSLVEASSSGVSVLSLCEKGDAMIMEETGKIFKKEKEMKKGIAFPTSISVNNCVCHFSPLKSDQDYILKEGDLVKIDLGVHVDGFIANVAHTFVVDVAQGTQVTGRKADVIKAAHLCAEAALRLVKPGNQNTQVTEAWNKVAHSFNCTPIEGMLSHQLKQHVIDGEKTIIQNPTDQQKKDHEKAEFEVHEVYAVDVLVSSGEGKAKDAGQRTTIYKRDPSKQYGLKMKTSRAFFSEVERRFDAMPFTLRAFEDEKKARMGVVECAKHELLQPFNVLYEKEGEFVAQFKFTVLLMPNGPMRITSGPFEPDLYKSEMEVQDAELKALLQSSASRKTQKKKKKKASKTAENATSGETLEENEAGD
# B2: ErbB3 binding protein 1 (EBP1) p42 isoform (protein, UniProt Q9UQ80-2 1-340)
# chain: MIMEETGKIFKKEKEMKKGIAFPTSISVNNCVCHFSPLKSDQDYILKEGDLVKIDLGVHVDGFIANVAHTFVVDVAQGTQVTGRKADVIKAAHLCAEAALRLVKPGNQNTQVTEAWNKVAHSFNCTPIEGMLSHQLKQHVIDGEKTIIQNPTDQQKKDHEKAEFEVHEVYAVDVLVSSGEGKAKDAGQRTTIYKRDPSKQYGLKMKTSRAFFSEVERRFDAMPFTLRAFEDEKKARMGVVECAKHELLQPFNVLYEKEGEFVAQFKFTVLLMPNGPMRITSGPFEPDLYKSEMEVQDAELKALLQSSASRKTQKKKKKKASKTAENATSGETLEENEAGD
# What was measured:
# Assay in all cases: co-IP; 150 µg nuclear protein of HCC cells (HepG2, Hep3B, Huh6) treated with DMSO or the IC50 of YC-1 for 6 h, with or without N-si-p48 DsiRNA; IP buffer 10 mM Tris-HCl pH 7.6, 145 mM NaCl, 1 mM EDTA, 1 mM EGTA, 0.5% Triton X-100; anti-β-catenin, anti-TCF4 or anti-EBP1 antibody overnight at 4 °C, protein A/G Sepharose; western blotting
# [1] = target: T1, ErbB3 binding protein 1 (EBP1) p42 isoform (human (endogenous in HepG2, Huh6 and Hep3B))
# [2] = target: β-catenin (human (endogenous in HepG2 and Hep3B)) (UniProt P35222)
# [3] = target: T cell-specific factor 4 (TCF4) (human (endogenous in HepG2, Hep3B and Huh6)) (UniProt Q9NQB0)
molecule,measurement,setting,value
T cell-specific factor 4 (TCF4) (from UniProt Q9NQB0 1-619),binding,[1],binds
B1,binding,[2],binds
same,binding,[3],binds
B2,binding,[2],binds
same,binding,[3],binds
